Data on one substance can be found in article PMC11464619.

Sequences of proteins named here, by UniProt entry; tags and fusion partners are left off.
UniProt Q12778: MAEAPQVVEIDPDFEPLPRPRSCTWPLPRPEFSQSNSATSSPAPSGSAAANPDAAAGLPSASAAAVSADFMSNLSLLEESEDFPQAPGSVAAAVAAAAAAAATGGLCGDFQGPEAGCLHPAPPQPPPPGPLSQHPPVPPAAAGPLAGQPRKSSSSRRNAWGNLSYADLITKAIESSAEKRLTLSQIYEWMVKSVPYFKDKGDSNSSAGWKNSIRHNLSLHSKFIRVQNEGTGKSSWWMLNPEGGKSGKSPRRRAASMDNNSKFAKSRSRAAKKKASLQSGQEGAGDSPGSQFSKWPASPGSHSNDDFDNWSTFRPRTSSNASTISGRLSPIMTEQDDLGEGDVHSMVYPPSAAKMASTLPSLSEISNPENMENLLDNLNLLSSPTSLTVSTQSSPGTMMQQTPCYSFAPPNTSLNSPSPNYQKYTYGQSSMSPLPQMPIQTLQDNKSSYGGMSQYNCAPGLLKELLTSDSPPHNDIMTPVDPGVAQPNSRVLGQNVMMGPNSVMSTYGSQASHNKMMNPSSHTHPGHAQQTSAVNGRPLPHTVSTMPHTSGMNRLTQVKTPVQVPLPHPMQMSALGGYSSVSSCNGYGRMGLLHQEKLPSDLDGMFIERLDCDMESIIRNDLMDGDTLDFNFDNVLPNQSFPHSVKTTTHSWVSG
UniProt P29034: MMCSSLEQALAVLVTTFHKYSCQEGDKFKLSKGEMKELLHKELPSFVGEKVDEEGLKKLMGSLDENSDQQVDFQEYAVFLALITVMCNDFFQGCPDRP

No constants are given. Whether binding was seen depends on the method and setting. In cells and extracts the contact can be indirect. Some entries that bind do so weakly or less than the wild type.

The target in this experiment is FoxO1 (human (endogenous in HK-2)) (UniProt Q12778). Put plainly: co-IP; endogenous proteins; lysate pre-cleared with Protein A+G agarose beads at 4°C for 30 min, then incubated overnight at 4°C with magnetic beads pre-bound with rabbit IgG, anti-S100A2 or anti-FoxO1; washed with TBS; immunoblotting. A general note: In western blotting, separated proteins are transferred to a membrane and probed.

Regarding “S100 calcium-binding protein A2 (from UniProt P29034 1-98)”, the binding result is reported as “binds”.
